Measurements reported in PubChem BioAssay AID743121 (NCATS, 2013)
The deposit covers about 26,000 reagents; this is a part drawn at random. 167 of all reagents (0.63%) were called active. 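Calls are per gene from RSA p-values that are not deposited; an individual active-marked siRNA can sensitise only weakly.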 Entries without a mark were called inactive. The numbers tell different reagents against one gene apart. Not all columns of the deposit are shown.

Assay: 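Genes whose silencing strengthens cell killing by camptothecin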 (primary screen)
Cell system: MDA-MB-231 cells, a human breast cancer line
Reagent: single siRNA against human genes, 20 nM siRNA (0.8 pmol per well)
Time to read-out: 120 h (drug added 48 h after transfection, read 72 h later)
Conditions: camptothecin 20 nM (about EC30) for 72 h; vehicle 0.1% DMSO in parallel plates
Read-out: 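CellTiter-Glo ATP signal, scaled to control siRNA as percent viability; sensitisation given as log2 of untreated divided by camptothecin-treated viability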
Direction: log2 vehicle/camptothecin viability: higher = stronger sensitisation to camptothecin
Active means: 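Active genes have an RSA gene-level p-value below 0.001, computed from the ratios of their separate siRNAs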

no.	Target gene	reagent	log2 vehicle/camptothecin viability
1	KIF3C (kinesin family member 3C)	1	0.289
2	KIF3C (kinesin family member 3C)	2	1.22
3	KIF3C (kinesin family member 3C)	3	-0.25
4	KIF3C (kinesin family member 3C)	4	-0.167
5	STK40 (serine/threonine kinase 40)	1	-0.446
6	STK40 (serine/threonine kinase 40)	2	-0.0485
7	STK40 (serine/threonine kinase 40)	3	-0.308
8	STK40 (serine/threonine kinase 40)	4	0.172
9	MET (MET proto-oncogene, receptor tyrosine kinase)	1	-0.29
10	MET (MET proto-oncogene, receptor tyrosine kinase)	2	-0.258
11	MET (MET proto-oncogene, receptor tyrosine kinase)	3	-0.329
12	MET (MET proto-oncogene, receptor tyrosine kinase)	4	-0.268
13	ABCE1 (ATP binding cassette subfamily E member 1)	1	-0.122
14	ABCE1 (ATP binding cassette subfamily E member 1)	2	-0.285
15	ABCE1 (ATP binding cassette subfamily E member 1)	3	-0.479
16	HGF (hepatocyte growth factor)	1	-0.359
17	HGF (hepatocyte growth factor)	2	-0.0211
18	HGF (hepatocyte growth factor)	3	0.302
19	HGF (hepatocyte growth factor)	4	-0.331
20	SORL1 (sortilin related receptor 1)	1	0.0133
21	SORL1 (sortilin related receptor 1)	2	0.354
22	SORL1 (sortilin related receptor 1)	3	-0.338

Taken from above.
Result of STK40 (serine/threonine kinase 40) #1 in “log2 vehicle/camptothecin viability”: -0.446
Under “log2 vehicle/camptothecin viability”, KIF3C (kinesin family member 3C) #3 is entered as -0.25
Under “log2 vehicle/camptothecin viability”, MET (MET proto-oncogene, receptor tyrosine kinase) #3 has -0.329
Entry for MET (MET proto-oncogene, receptor tyrosine kinase) #1 under “log2 vehicle/camptothecin viability”: -0.29

Further results follow:
no.	Target gene	reagent	log2 vehicle/camptothecin viability
23	FKBP15 (FKBP prolyl isomerase family member 15)	1	0.104
24	FKBP15 (FKBP prolyl isomerase family member 15)	2	-0.248
25	FKBP15 (FKBP prolyl isomerase family member 15)	3	-0.197
26	FKBP15 (FKBP prolyl isomerase family member 15)	4	-0.0868
27	STK32A (serine/threonine kinase 32A)	1	-0.497
28	STK32A (serine/threonine kinase 32A)	2	-0.263
29	STK32A (serine/threonine kinase 32A)	3	0.131
30	STK32A (serine/threonine kinase 32A)	4	-0.437
31	F11R (F11 receptor)	1	0.157
32	F11R (F11 receptor)	2	-0.0573
33	F11R (F11 receptor)	3	-1.04
34	F11R (F11 receptor)	4	-0.322
35	UCP2 (uncoupling protein 2)	1	1.04
36	UCP2 (uncoupling protein 2)	2	0.218
37	UCP2 (uncoupling protein 2)	3	-0.21
38	UCP2 (uncoupling protein 2)	4	-0.206
39	NRIP2 (nuclear receptor interacting protein 2)	1	-0.318
40	NRIP2 (nuclear receptor interacting protein 2)	2	-0.219
41	NRIP2 (nuclear receptor interacting protein 2)	3	-0.0547
42	NRIP2 (nuclear receptor interacting protein 2)	4	-0.255
43	FGF1 (fibroblast growth factor 1)	1	0.0529
44	FGF1 (fibroblast growth factor 1)	2	0.682
45	FGF1 (fibroblast growth factor 1)	3	-0.0951
46	FGF1 (fibroblast growth factor 1)	4	-0.354
47	PRKCH (protein kinase C eta)	1	-0.114
48	PRKCH (protein kinase C eta)	2	-0.282
49	PRKCH (protein kinase C eta)	3	-0.246
50	PRKCH (protein kinase C eta)	4	0.0322
51	PC (pyruvate carboxylase)	1	-0.226
52	PC (pyruvate carboxylase)	2	-0.117
53	PC (pyruvate carboxylase)	3	-0.606
54	PC (pyruvate carboxylase)	4	-0.02
55	UBE3C (ubiquitin protein ligase E3C)	1	-0.0789
56	UBE3C (ubiquitin protein ligase E3C)	2	0.244
57	UBE3C (ubiquitin protein ligase E3C)	3	0.0287
58	UBE3C (ubiquitin protein ligase E3C)	4	-0.0046
59	BAIAP2L1 (BAR/IMD domain containing adaptor protein 2 like 1)	1	-0.299
60	BAIAP2L1 (BAR/IMD domain containing adaptor protein 2 like 1)	2	-0.495
61	BAIAP2L1 (BAR/IMD domain containing adaptor protein 2 like 1)	3	0.219
62	BAIAP2L1 (BAR/IMD domain containing adaptor protein 2 like 1)	4	-0.104
63	IFNA17 (interferon alpha 17)	1	-0.279
64	IFNA17 (interferon alpha 17)	2	-0.51
65	TNFSF9 (TNF superfamily member 9)	1	-0.449
66	TNFSF9 (TNF superfamily member 9)	2	-0.348
67	TNFSF9 (TNF superfamily member 9)	3	-0.542
68	TNFSF9 (TNF superfamily member 9)	4	-0.48
